Source: PMC12781872
These are yes or no findings as the source states them, for the method shown. Some entries that bind do so weakly or less than the wild type.

The chains behind the UniProt entries cited, without tags or fusion partners. Where a name states a change or a piece, a line headed by the entry shows the natural chain unless it says otherwise.
UniProt P9WGZ1: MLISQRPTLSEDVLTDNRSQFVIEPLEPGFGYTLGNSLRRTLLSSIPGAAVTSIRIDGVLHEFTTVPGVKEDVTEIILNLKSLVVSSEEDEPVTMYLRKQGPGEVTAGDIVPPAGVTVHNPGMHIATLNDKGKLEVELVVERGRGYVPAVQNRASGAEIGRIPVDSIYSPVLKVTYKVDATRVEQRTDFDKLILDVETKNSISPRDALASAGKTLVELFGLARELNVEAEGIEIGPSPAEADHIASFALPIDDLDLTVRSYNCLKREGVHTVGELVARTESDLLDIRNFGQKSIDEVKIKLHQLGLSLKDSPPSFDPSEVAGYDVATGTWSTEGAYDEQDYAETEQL

B1: TMR-labelled Mtb σ^F (wild type, labelled at the natural cysteine, residue 47 of σ2) (protein, UniProt P9WGI3 1-261)
chain: MTARAAGGSASRANEYADVPEMFRELVGLPAGSPEFQRHRDKIVQRCLPLADHIARRFEGRGEPRDDLIQVARVGLVNAAVRFDVKTGSDFVSFAVPTIMGEVRRHFRDNSWSVKVPRRLKELHLRLGTATADLSQRLGRAPSASELAAELGMDRAEVIEGLLAGSSYHTLSIDSGGGSDDDARAITDTLGDVDAGLDQIENREVLRPLLEALPERERTVLVLRFFDSMTQTQIAERVGISQMHVSRLLAKSLARLRDQLE
B2: Mtb NusA (labelled) (protein, UniProt P9WIV3 1-347)
chain: MNIDMAALHAIEVDRGISVNELLETIKSALLTAYRHTQGHQTDARIEIDRKTGVVRVIARETDEAGNLISEWDDTPEGFGRIAATTARQVMLQRFRDAENERTYGEFSTREGEIVAGVIQRDSRANARGLVVVRIGTETKASEGVIPAAEQVPGESYEHGNRLRCYVVGVTRGAREPLITLSRTHPNLVRKLFSLEVPEIADGSVEIVAVAREAGHRSKIAVRSNVAGLNAKGACIGPMGQRVRNVMSELSGEKIDIIDYDDDPARFVANALSPAKVVSVSVIDQTARAARVVVPDFQLSLAIGKEGQNARLAARLTGWRIDIRGDAPPPPPGQPEPGVSRGMAHDR

Biological target: Mycobacterium tuberculosis RNA polymerase core (α2ββ'ω), wildtype (Mycobacterium tuberculosis) (UniProt P9WGZ1)
Test: native gel or EMSA; both purified

| Binder | binding |
| --- | --- |
| B1 | binds |
| B2 | binds |
